Assay results reported in patent publication US20250145963A1, “Improved Differentiation Method” (Koninklijke Nederlandse Akademie Van Wetenschappen, priority 2016, published 2025).
For at least one compound, name, drawing or mass did not settle the structure.

Tested on: intestinal organoids
Experiment: Cell cycle analysis of intestinal organoids (EdU, KI67, Hoechst DNA content)
Assay type: cell-based, mouse
Conditions: FIG. 2B

CN(C)C/C=C/C(=O)Nc1cc2c(Nc3ccc(F)c(Cl)c3)ncnc2cc1O[C@H]1CCOC1 [Afatinib]
quiescence of Lgr5+ cells: yielded similar results
